These results are taken from PMC3979679.

Sequences of proteins named here, by UniProt entry; tags and fusion partners are left off. A change or cut given only in a name is not applied to a line headed by its entry. A line that says so, or that is headed by a name, gives the form on record, which may keep a tag or linker. Residues count along the entry.
GTP binding protein 4 (gtpbp4), prey (Q7ZVR0, form named): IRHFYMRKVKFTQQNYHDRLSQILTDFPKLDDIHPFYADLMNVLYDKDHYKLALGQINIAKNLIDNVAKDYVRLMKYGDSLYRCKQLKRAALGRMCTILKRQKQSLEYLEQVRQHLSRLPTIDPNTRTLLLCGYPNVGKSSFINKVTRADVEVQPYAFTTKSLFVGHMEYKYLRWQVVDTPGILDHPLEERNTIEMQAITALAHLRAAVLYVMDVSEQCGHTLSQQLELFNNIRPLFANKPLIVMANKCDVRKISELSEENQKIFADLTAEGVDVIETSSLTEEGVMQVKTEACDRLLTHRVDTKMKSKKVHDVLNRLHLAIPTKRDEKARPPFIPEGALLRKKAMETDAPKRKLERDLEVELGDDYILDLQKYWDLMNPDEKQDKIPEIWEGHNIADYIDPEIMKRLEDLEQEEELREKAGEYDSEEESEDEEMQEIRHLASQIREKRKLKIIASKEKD
UniProt Q91981, residues 19-233: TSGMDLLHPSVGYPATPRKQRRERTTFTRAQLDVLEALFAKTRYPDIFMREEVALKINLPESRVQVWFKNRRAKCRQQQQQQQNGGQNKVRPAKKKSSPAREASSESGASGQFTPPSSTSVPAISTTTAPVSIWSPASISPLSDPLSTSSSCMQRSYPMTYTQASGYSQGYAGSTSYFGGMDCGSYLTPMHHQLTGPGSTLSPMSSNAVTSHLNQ

The test deals with T1, Mib2-C-RF12 (781-999 aa) (zebrafish) (UniProt A0AR23).
T1 sequence: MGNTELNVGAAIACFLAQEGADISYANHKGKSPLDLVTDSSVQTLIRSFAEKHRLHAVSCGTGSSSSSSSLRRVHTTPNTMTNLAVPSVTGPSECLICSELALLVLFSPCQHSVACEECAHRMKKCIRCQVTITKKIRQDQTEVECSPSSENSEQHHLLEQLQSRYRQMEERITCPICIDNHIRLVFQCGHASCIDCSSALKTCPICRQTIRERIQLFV
Put plainly: two-hybrid; first screen (Hybrigenics): LexA DNA-binding domain-bait and Gal4 activation domain-prey, HIS3 reporter, in the nucleus; random-primed Danio rerio embryo (18-20 hpf) cDNA library.

These are yes or no findings as the source states them, for the method shown. Some binding calls cover weakened binding; strength is not graded here.

Turning to “GTP binding protein 4 (gtpbp4), prey (from UniProt Q7ZVR0 43-502) (domain or fragment)”, the binding result was “binds”. As for “orthodenticle homolog 2 (otx2), prey (from UniProt Q91981 19-233) (domain or fragment)”, the binding entry is “binds”.
